Laboratory results from PubChem BioAssay (NCATS).
This list was built around the results that the source calls inconclusive (neither active nor inactive); the mix of calls is not that of the screen. Where the call is inconclusive, the potency comes from a doubtful curve fit. Activity calls are given as the source filed them. The call rests on the fitted dose curve; in most records, active means well fitted cell-killing curve with a large enough effect; inconclusive means small, poorly fitted or top-dose-only effect, or effect the other way; inactive means no such curve, though single readings can be large or run the other way.

Assay: Quantitative High-Throughput drug screen in 47 multiple myeloma cell lines against the NCATS MIPE library collection: MOLP8_DSMZ cell viability assay (AID 1918977); further: nearly all actives have a fitted effect of over 45% in size
Conditions: MOLP8 myeloma viability, CellTiter-Glo ATP luminescence, 48 h; viability (% of control): at 45.8 µM (top of the series)
Outline: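 ATP-based CellTiter-Glo luminescence after 48 h drug exposure (37 °C, 5% CO2) of 500 myeloma cells per well. DMSO-only wells set 100% viability, media-only wells 0%; MIPE 4.0 library added by pin tool.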
Potency means the concentration at half of the fitted maximal effect.

Compound | Potency | viability (% of control)
CC(C)C[C@H](NC(=O)c1cc2ccccc2s1)C(=O)N1CCN(C(=O)[C@H](CO)NS(=O)(=O)c2ccc(Cl)cc2Cl)CC1 | inconclusive: 16.6 µM [cytotoxic, partial curve] | 
Cc1oc(=O)oc1CN1CCN(c2cc3c(cc2F)c(=O)c(C(=O)O)c2n3C(C)S2)CC1 (stereo not drawn) |  | inconclusive: 78.8% [cytotoxic]
NCc1c[nH]c(=S)n1[C@H]1CCc2c(F)cc(F)cc2C1 | active: 18.7 µM | 
COc1ccc2c(c1)CC[C@@H](CN(C)CC(=O)O)[C@H]2c1ccccc1 | inconclusive: 3.32 µM [cytotoxic, partial curve] | 
COc1cc(CNC(=O)CCCCC=CC(C)C)ccc1O | inconclusive: 0.0083 µM [rising, full curve, poor fit] | 
Nc1cccc(S(=O)(=O)N2CCCN(S(=O)(=O)c3ccc4c(c3)OCCO4)CC2)c1 |  | inactive: 109%
CCn1c(-c2nonc2N)nc2c(C#CC(C)(C)O)ncc(OC[C@H]3CCCNC3)c21 | inconclusive: 5.9 µM [cytotoxic, partial curve] | 
COc1cc2c(c(OC)c1OC)-c1ccc(OC)c(=O)cc1[C@@H](NC(C)=O)CC2 | inconclusive: 0.0187 µM [cytotoxic, full curve] | 
Oc1ccc([C@@H]2Oc3ccc(O)cc3[C@@H]3CCC[C@@H]32)cc1 | inconclusive: 33.2 µM [cytotoxic, single point] | 
N#CC(=C(N)Sc1ccc(N)cc1)c1ccccc1C(F)(F)F | inconclusive: 14.8 µM [cytotoxic, partial curve, poor fit] | 
CCC(=O)N1CCN(c2ccc(-n3c(=O)ccc4cnc5ccc(-c6cnc7ccccc7c6)cc5c43)cc2C(F)(F)F)CC1 | active: 0.0332 µM | 
CCn1c(=O)c2c(nc(C=Cc3ccc(OC)c(OC)c3)n2C)n(CC)c1=O |  | inactive: 98.3%
CCNC(=O)Nc1ccc(Oc2ncnc(N)c2C=NOC)cc1Cl | inconclusive: 37.2 µM [cytotoxic, single point] | 
CC(C)(O)CCc1ccc(OCc2cc(-c3cccc(OC(F)F)c3)c3ncccc3c2)cc1 | inconclusive: 11.8 µM [cytotoxic, single point] | 
N#CC(c1ccc(Cl)cc1)c1c(Cl)cc(-n2ncc(=O)[nH]c2=O)cc1Cl (stereo not drawn) |  | inactive: 92.6%
Cc1ccc2c(=O)c3cccc(CC(=O)O)c3oc2c1C | inconclusive: 3.72 µM [cytotoxic, full curve, poor fit] | 
CN(C)CCN(Cc1ccc(Cl)cc1)c1ccccn1 | inconclusive: 0.0074 µM [rising, full curve] | 
COc1ccc2[nH]cc(CCNC(C)=O)c2c1 |  | inactive: 116%
CN1c2ccccc2C(=O)N2CCc3c([nH]c4ccccc34)C21 (stereo not drawn) | inconclusive: 20.9 µM [cytotoxic, partial curve, poor fit] | 

Reformatted tab-delimited: part of the list above
Compound	Potency	viability (% of control)
CN(C)CCN(Cc1ccc(Cl)cc1)c1ccccn1	inconclusive: 0.0074 µM [rising, full curve]	
COc1ccc2[nH]cc(CCNC(C)=O)c2c1		inactive: 116%

Next entries.

Compound | Potency | viability (% of control)
CC(=O)N1CCN(c2ccc(OC[C@H]3CO[C@](Cn4ccnc4)(c4ccc(Cl)cc4Cl)O3)cc2)CC1 | inconclusive: 0.418 µM [cytotoxic, single point] | 
CCN(C)C(=O)Oc1cccc([C@H](C)N(C)C)c1 |  | inactive: 122%
CCN(CCO)CCCOc1ccc2c(Nc3cc(CC(=O)Nc4cccc(F)c4)[nH]n3)ncnc2c1 |  | inactive: 68.8%
N#CC(=C(O)c1ccc(Cl)cc1Cl)c1nc2cc(Cl)ccc2c(=O)[nH]1 |  | inactive: 96.5%
CCCCOCCOc1nc(-c2ccc(C(=O)O)c(F)c2)sc1C |  | inactive: 106%
CC(C)(Oc1ccc(C2CC2(Cl)Cl)cc1)C(=O)O (stereo not drawn) | inconclusive: 24.1 µM [cytotoxic, partial curve, poor fit] | 
CNC(=O)c1cc(Oc2ccc(NC(=O)Nc3ccc(Cl)c(C(F)(F)F)c3)cc2)ccn1 | inconclusive: 4.69 µM [cytotoxic, partial curve, poor fit] | 
CC(c1cc2ccccc2s1)N(O)C(N)=O (stereo not drawn) |  | inactive: 78.9%
CN1CCC[C@H]1CCO[C@](C)(c1ccccc1)c1ccc(Cl)cc1 |  | inactive: 61.4%
C=CCn1c(=O)c2cnc(Nc3ccc(N4CCN(C)CC4)cc3)nc2n1-c1cccc(C(C)(C)O)n1 | inconclusive: 0.235 µM [cytotoxic, full curve] | 
CC(NCCc1ccc(O)cc1)C(O)c1ccc(O)cc1 (stereo not drawn) |  | inactive: 111%
Cn1c(=O)c2c(ncn2CC(O)CO)n(C)c1=O (stereo not drawn) |  | inactive: 125%
N[C@@H](Cc1ccc(O)c(O)c1)C(=O)O | inconclusive: 33.2 µM [cytotoxic, single point] | 
CC(C)(C)OC(=O)Nc1ccc(-c2cc(C(=O)NCCCCCCC(=O)NO)no2)cc1 | inconclusive: 1.66 µM [cytotoxic, full curve] | 
CON=C(C(=O)N[C@@H]1C(=O)N2C(C(=O)O)=C(Cn3ccc(=N)n3CCO)CS[C@H]12)c1csc(N)n1 |  | inactive: 95.9%
O=C(O)CCc1ccc(NCc2cccc(Oc3ccccc3)c2)cc1 |  | inactive: 92.7%
Cn1cc(-c2ccncc2)c(-c2ccc(OCc3ccc4ccccc4n3)cc2)n1 | inconclusive: 14.8 µM [cytotoxic, partial curve, poor fit] | 
COc1cccc(Nc2c(C(N)=O)cnc3c(C)cc(S(=O)(=O)c4cccc(C(=O)N(C)C)c4)cc23)c1 | inconclusive: 0.0288 µM [rising, full curve, poor fit] | 
COc1ccc2c(c1OC)C(=O)OC2[C@H]1c2c(cc3c(c2OC)OCO3)CCN1C (stereo partly drawn) | active: 6.62 µM | 
